These are yes or no findings as the source states them, for the method shown.
B1: recombinant human hemopexin (protein, UniProt P02790 24-462)
chain: TPLPPTSAHGNVAEGETKPDPDVTERCSDGWSFDATTLDDNGTMLFFKGEFVWKSHKWDRELISERWKNFPSPVDAAFRQGHNSVFLIKGDKVWVYPPEKKEKGYPKLLQDEFPGIPSPLDAAVECHRGECQAEGVLFFQGDREWFWDLATGTMKERSWPAVGNCSSALRWLGRYYCFQGNQFLRFDPVRGEVPPRYPRDVRDYFMPCPGRGHGHRNGTGHGNSTHHGPEYMRCSPHLVLSALTSDNHGATYAFSGTHYWRLDTSRDGWHSWPIAHQWPQGPSAVDAAFSWEEKLYLVQGTQVYVFLTKGGYTLVSGYPKRLEKEVGTPHGIILDSVDAAFICPGSSRLHIMAGRRLWWLDLKSGAQATWTELPWPHEKVDGALCMEKSLGPNSCSANGPGLYLIHGPNLYCYSDVEKLNAAKALPQPQNVTSLLGCTH
B2: human plasma hemopexin (protein, UniProt P02790 24-462)
chain: B1 chain

Experiments:
[1] = target: recombinant human hemopexin (human) (UniProt P02790); assay: SEC; SEC-HPLC, BioSep-SEC-s3000 column, mobile phase 1 mM potassium phosphate pH 7.4; heme complexes at L/P 0.5 and 2.0 compared with the apo-proteins and PEG-HPX as high molecular weight reference; detection at 280 and 413 nm; both purified
[2] = target: human plasma hemopexin (human) (UniProt P02790); assay: as above

| Binder | binding [1] | binding [2] |
| --- | --- | --- |
| B1 | no binding | – |
| B2 | – | no binding |

Source: publication PMC7866118
